2 substances from publication PMC11787368 can be followed below.

Amino acid sequences for entries named in this document (tags omitted). A change or cut given only in a name is not applied to a line headed by its entry. Chains listed by the source or under a name are the forms on record and can include a tag or linker. Residues count along the entry.
HT-RBPJ-WT (wild-type RBPJ fused to an N-terminal HaloTag) (P31266, residues 53-474): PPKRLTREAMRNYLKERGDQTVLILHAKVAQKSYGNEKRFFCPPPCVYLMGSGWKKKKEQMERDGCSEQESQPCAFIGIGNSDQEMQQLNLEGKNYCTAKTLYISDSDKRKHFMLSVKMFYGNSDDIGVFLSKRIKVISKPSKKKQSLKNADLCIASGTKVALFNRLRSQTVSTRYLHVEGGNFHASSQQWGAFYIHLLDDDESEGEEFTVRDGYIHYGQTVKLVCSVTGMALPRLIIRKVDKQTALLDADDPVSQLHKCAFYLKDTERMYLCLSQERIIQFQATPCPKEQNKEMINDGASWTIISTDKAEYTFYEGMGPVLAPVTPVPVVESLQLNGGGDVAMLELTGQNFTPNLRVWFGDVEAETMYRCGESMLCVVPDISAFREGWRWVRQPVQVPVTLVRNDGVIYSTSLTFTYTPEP
HT-RBPJ-KRS/EHD (RBPJ K195E/R218H/S221D with N-terminal HaloTag) (P31266, form named): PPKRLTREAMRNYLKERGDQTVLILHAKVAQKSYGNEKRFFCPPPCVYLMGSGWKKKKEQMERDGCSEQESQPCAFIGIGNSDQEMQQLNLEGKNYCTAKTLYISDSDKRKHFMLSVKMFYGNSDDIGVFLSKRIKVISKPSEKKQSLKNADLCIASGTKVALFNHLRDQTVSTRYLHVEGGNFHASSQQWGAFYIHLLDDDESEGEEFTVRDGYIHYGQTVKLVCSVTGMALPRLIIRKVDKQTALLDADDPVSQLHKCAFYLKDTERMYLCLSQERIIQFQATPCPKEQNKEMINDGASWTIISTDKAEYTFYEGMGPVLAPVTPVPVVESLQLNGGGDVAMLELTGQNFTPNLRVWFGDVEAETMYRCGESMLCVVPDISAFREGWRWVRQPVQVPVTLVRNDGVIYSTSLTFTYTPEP

Results are given in words; binding and its absence hold for the method and conditions named. Binding seen in cells or lysates may run through a third protein. Some entries that bind do so weakly or less than the wild type. Sequences can lack the tags named with a protein.

For this experiment, the target named is T1, Flag tagged SHARP (aa 2770-3127) (UniProt Q96T58).
T1 sequence: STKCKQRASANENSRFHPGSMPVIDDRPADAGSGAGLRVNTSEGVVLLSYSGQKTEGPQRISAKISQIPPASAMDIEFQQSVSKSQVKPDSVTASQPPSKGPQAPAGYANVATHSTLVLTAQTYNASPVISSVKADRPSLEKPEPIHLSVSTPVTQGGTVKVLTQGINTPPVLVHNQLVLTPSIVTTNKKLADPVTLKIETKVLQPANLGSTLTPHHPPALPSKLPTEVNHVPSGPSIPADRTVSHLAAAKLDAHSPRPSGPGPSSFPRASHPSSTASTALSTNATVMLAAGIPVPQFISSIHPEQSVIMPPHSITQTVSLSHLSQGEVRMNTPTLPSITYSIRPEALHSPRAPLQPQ
Kind of experiment: co-IP; HEK293 cells co-transfected with Halo-tagged RBPJ variant and Flag-tagged NICD or Flag-tagged SHARP (aa 2770-3127); lysed 24 h after transfection in CHAPS lysis buffer; lysate incubated with anti-Flag (M2) agarose beads overnight at 4 °C; six washes; SDS-PAGE and blot.

“HT-RBPJ-WT (wild-type RBPJ fused to an N-terminal HaloTag) (from UniProt P31266 53-474)”: the binding result is “binds”.

As to “HT-RBPJ-KRS/EHD (RBPJ K195E/R218H/S221D with N-terminal HaloTag) (from UniProt P31266 53-474)”, the binding result is reported as “binds”.
